Results are given in words; binding and its absence hold for the method and conditions named. Some binding calls cover weakened binding; strength is not graded here. Tags and fused reporters may be left off the sequences shown.
Key:
[1] = target: GAL-4-BD-TRAP fusion protein (human); assay: mammalian two-hybrid luciferase assay
[2] = target: GAL-4-BD-TRAP fusion protein (human); assay: mammalian two-hybrid luciferase assay (FIG. 12)

B1: VP-16-AD-GPC4 fusion protein (full length glypican 4) (protein)
chain: ALLAAELKSKSCSEVRRLYVSKGFNKNDAPLHEINGDHLKICPQGSTCCSQEMEEKYSLQSKDDFKSVVSEQCNHLQAVFASRYKKFDEFFKELLENAEKSLNDMFVKTYGHLYMQNSELFKDLFVELKRYYVVGNVNLEEMLNDFWARLLERMFRLVNSQYHFTDEYLECVSKYTEQLKPFGDVPRKLKLQVTRAFVAARTFAQGLAVAGDVVSKVSVVNPTAQCTHALLKMIYCSHCRGLVTVKPCYNYCSNIMRGCLANQGDLDFEWNNFIDAMLMVAERLEGPFNIESVMDPIDVKISDAIMNMQDNSVQVSQKVFQGCGPPKPLPAGRISRSISESAFSARFRPHHPEERPTTAAGTSLDRLVTDVKEKLKQAKKFWSSLPSNVCNDERMAAGNGNEDDCWNGKGKSRYLFAVTGNGLANQGNNPEVQVDTSKPDILILRQIMALRVMTSKMKNAYNGNDVDFFDISDESSGEGSGSGCEYQQCPSEFDYNATDHAGKSANEKADS
binding [1]: binds
binding [2]: binds

— patent publication US20050112168A1
